In patent publication US20250154256A1 (AUGUSTA UNIVERSITY RESEARCH INSTITUTE, published 2025):
No constants are given. Whether binding was seen depends on the method and setting. Some binding calls cover weakened binding; strength is not graded here.

Amino acid sequences for entries named in this document (tags omitted). A change or cut given only in a name is not applied to a line headed by its entry.
UniProt Q15116: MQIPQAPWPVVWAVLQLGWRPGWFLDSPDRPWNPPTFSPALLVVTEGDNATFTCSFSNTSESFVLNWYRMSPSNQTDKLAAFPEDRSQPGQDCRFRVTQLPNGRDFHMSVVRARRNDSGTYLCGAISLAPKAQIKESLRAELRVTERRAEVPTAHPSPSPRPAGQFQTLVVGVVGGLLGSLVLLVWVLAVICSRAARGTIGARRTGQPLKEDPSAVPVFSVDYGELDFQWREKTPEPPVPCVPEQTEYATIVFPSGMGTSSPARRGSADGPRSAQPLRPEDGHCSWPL

Assays:
[1] = biological target: T1, human PD-1 (human, UniProt Q15116 25-167, limits assumed); test: SPR (Biacore), antibody as immobilised ligand, human PD-1 as analyte at 0, 125, 250, 500, 500 and 1000 nM according to the legend; traces not labelled
T1 construct: Analyte in solution in the Biacore runs; also called programmed cell death protein 1

[2] = biological target: T2, mouse PD-1 (mouse, UniProt Q02242 25-167, limits assumed); test: SPR (Biacore), antibody as immobilised ligand, mouse PD-1 as analyte at 0, 62.5, 125, 500, 500 and 1000 nM according to the legend; traces not labelled
T2 construct: Analyte in solution in the Biacore runs
T2 sequence: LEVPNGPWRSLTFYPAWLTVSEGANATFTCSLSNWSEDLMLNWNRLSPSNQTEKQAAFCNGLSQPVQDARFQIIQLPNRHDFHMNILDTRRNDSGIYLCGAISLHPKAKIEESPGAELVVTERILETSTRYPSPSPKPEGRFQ

[3] = biological target: T3, human PD-1-Fc (human, UniProt Q15116 25-170, limits assumed); test: ELISA on human PD-1-Fc (FIG. 10)
T3 construct: ELISA antigen

[4] = biological target: mouse PD-1 expressed on cells (murine EL4 cells; CD4 T cells from wild-type mice) (mouse) (UniProt Q02242); test: flow cytometry on EL4 cells (FIG. 6B)
[5] = biological target: mouse PD-1 expressed on cells (murine EL4 cells; CD4 T cells from wild-type mice) (mouse) (UniProt Q02242); test: flow cytometry on EL4 cells (FIG. 6D)
[6] = biological target: T3, human PD-1-Fc; test: ELISA, binding to human PD-1-Fc
[7] = biological target: mouse PD-1 expressed on cells (murine EL4 cells; CD4 T cells from wild-type mice) (mouse) (UniProt Q02242); test: flow cytometry on mouse CD4 T cells, PD-1 KO cells as negative control (FIG. 11A, 11B)
[8] = biological target: mouse PD-1 expressed on cells (murine EL4 cells; CD4 T cells from wild-type mice) (mouse) (UniProt Q02242); test: flow cytometry on EL4 cells, MFI bar graph, purified antibody at 0.5 ug and 2 ug
[9] = biological target: mouse PD-1 expressed on cells (murine EL4 cells; CD4 T cells from wild-type mice) (mouse) (UniProt Q02242); test: flow cytometry on murine EL4 cells that constitutively express PD-1, PE-labelled secondary detection
[10] = biological target: mouse PD-1 expressed on cells (murine EL4 cells; CD4 T cells from wild-type mice) (mouse) (UniProt Q02242); test: flow cytometry on CD4 T cells from WT mice; CD4 T cells from PD-1 KO mice (FIG. 11A) as specificity control
[11] = biological target: T2, mouse PD-1; test: SPR (Biacore), antibody as immobilised ligand, mouse PD-1 as analyte at 0, 62.5, 125, 250, 500, 500 and 1000 nM according to the legend; traces not labelled

Measured: binding

B1: monoclonal antibody 4G9 (antibody, mouse IgG2b, kappa, V domains shown)
VH: QIQLVQSGPELKKPGETVKISCKASGYTFTTYGMTWVKQAPGKGLKWMGWINTYSGVPTYADDFKGRFAFSLETSASTAYLQINNLKNEDTATYFCARGGRGFAYWGQGTLVTVSA
VL: DILLTQSPAILSVSPGERVSFSCRASQSIGTSIHWYQQRTNGSPRLLIKYASESISGIPSRFSGSGSGTDFTLSINSVESEDIADYYCQQSNSWPYTFGGGTKLEIKR
notes: also called 4G9 anti-PD-1 antibody
binds: [1] | [2]

B2: monoclonal antibody 5C2 (antibody, IgG1, V domains shown)
VH: QVQLQQPGAELVKPGASVKVSCKASGYTFTSYWMHWVKQRPGQGLEWIGRIHPSDSDTNYNQKFKGKATLTVDKSSSTAYMQLSSLTSEDSAVYYCAPYGNYASGFAYWGQGTLVTVSA
VL: DIVMTQSHKFMSTSVGDRVSITCKASQDVSTAVAWYQQKPGQSPKLLIYWASTRHTGVPDRFTGSGSGTDYTLTISSVQAEDLALYYCQQHYSTPWTFGGGTKLEIKR
notes: the two clones are reported with different SPR values; also called 5C2 anti-PD-1 antibody
binds: [3] | [4] | [5] | [6] | [7] | [8] | [9] | [10] | [11]
